Experimental findings from publication doi:10.1101/2024.06.27.600913 are described below.

By UniProt entry, the sequences of proteins in these tests, tags left out.
UniProt P28159: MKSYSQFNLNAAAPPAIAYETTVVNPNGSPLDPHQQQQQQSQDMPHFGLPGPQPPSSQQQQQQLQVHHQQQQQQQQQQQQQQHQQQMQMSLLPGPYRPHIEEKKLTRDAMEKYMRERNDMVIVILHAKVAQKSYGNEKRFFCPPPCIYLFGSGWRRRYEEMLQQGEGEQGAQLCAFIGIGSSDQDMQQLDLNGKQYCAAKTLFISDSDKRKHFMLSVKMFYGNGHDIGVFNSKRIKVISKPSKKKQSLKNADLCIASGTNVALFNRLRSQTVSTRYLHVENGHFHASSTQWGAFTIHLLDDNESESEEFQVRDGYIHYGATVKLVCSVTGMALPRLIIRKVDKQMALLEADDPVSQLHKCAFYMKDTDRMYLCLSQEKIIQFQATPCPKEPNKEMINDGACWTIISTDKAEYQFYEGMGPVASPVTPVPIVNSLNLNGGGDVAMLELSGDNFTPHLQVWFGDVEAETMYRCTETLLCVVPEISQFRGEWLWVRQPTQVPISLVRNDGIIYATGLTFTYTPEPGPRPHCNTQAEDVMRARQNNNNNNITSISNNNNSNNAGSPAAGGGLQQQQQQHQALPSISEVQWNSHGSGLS
UniProt P30052: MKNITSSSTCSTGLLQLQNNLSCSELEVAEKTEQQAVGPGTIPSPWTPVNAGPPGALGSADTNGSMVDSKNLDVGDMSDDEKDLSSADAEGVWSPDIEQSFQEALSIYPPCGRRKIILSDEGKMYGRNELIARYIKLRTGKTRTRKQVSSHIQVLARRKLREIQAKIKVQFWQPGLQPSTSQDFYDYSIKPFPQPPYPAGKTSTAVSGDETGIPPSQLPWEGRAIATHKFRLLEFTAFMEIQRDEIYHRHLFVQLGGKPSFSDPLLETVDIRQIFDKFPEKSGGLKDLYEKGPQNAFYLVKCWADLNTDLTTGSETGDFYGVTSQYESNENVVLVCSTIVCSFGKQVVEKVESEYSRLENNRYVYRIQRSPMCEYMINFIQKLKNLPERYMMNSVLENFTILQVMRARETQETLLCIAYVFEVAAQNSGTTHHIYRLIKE
UniProt Q06330: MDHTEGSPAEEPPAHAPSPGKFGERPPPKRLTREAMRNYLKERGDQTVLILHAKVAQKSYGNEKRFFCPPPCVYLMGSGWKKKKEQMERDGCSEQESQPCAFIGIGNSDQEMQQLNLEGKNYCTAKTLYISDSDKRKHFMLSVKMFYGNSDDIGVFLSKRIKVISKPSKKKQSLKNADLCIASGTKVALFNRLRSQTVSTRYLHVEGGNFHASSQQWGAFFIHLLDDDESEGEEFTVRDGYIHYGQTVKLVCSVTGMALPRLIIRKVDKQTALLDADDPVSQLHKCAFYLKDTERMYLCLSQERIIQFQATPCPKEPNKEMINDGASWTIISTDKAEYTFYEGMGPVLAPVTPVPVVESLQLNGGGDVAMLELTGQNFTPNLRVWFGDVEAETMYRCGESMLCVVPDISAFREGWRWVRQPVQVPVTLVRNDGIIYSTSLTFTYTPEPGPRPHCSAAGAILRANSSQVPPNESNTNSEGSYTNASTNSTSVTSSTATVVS
UniProt Q9GZV5: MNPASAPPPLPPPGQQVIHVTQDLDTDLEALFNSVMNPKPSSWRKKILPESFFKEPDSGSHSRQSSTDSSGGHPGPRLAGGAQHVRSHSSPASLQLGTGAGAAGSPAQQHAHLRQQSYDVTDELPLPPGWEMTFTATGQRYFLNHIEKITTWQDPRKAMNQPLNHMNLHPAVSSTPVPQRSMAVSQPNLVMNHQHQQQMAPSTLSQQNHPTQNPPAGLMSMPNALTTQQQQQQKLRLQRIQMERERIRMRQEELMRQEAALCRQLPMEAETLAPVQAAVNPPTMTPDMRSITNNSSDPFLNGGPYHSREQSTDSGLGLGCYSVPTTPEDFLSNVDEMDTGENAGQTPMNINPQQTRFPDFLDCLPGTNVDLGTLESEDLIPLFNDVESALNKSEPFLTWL

Test [1] addresses T1, Myc-tagged E75 expressed in Drosophila S2 cells (Drosophila melanogaster) (UniProt P17671).
T1 sequence: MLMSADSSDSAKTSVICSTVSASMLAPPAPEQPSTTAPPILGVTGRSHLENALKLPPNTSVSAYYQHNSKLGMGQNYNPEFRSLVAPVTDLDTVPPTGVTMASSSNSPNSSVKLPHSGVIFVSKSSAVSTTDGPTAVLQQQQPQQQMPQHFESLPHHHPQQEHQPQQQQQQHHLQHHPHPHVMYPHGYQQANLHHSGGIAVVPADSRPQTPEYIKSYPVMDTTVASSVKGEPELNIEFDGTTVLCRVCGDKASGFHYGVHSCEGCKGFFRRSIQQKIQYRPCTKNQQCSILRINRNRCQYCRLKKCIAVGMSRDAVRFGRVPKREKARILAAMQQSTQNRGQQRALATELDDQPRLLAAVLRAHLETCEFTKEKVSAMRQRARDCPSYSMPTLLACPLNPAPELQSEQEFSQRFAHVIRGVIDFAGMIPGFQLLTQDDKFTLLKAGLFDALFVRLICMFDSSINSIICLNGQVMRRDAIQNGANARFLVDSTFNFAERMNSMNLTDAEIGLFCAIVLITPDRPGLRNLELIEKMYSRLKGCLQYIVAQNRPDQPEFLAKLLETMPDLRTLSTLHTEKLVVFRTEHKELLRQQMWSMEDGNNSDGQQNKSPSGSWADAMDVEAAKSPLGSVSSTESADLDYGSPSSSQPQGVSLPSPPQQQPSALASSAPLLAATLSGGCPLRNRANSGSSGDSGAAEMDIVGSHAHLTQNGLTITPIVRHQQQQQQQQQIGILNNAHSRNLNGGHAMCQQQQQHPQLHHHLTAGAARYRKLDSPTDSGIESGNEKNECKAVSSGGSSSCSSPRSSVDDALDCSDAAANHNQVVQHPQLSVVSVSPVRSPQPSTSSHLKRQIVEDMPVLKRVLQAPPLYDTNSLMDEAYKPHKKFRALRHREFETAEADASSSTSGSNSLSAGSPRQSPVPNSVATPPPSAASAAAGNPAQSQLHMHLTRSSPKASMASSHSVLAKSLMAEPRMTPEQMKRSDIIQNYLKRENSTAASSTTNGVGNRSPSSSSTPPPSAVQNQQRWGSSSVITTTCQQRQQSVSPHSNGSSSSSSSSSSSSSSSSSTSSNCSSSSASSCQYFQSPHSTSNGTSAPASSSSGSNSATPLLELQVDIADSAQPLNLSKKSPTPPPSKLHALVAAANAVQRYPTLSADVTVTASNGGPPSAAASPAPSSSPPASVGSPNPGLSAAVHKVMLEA
Nature of the test: co-IP.

In test [2] the target is T2, Flag-tagged E75 (A isoform of Eip75B), overexpressed in Drosophila tissue (Drosophila melanogaster) (UniProt P17671).
T2 sequence: T1 sequence
Briefly: proximity ligation.

For test [3], the target named is T2, Flag-tagged E75 (A isoform of Eip75B), overexpressed in Drosophila tissue (Drosophila melanogaster). Nature of the test: proximity ligation. This is another data set of the same source.
The target in test [4] is T3, Flag-tagged E75 expressed in Drosophila S2 cells (Drosophila melanogaster) (UniProt P17671).
T3 sequence: T1 sequence
Briefly: co-IP.

Test [5] deals with T4, HA-tagged NR1D2 stably expressed in U87 MG cells (UniProt Q14995).
T4 sequence: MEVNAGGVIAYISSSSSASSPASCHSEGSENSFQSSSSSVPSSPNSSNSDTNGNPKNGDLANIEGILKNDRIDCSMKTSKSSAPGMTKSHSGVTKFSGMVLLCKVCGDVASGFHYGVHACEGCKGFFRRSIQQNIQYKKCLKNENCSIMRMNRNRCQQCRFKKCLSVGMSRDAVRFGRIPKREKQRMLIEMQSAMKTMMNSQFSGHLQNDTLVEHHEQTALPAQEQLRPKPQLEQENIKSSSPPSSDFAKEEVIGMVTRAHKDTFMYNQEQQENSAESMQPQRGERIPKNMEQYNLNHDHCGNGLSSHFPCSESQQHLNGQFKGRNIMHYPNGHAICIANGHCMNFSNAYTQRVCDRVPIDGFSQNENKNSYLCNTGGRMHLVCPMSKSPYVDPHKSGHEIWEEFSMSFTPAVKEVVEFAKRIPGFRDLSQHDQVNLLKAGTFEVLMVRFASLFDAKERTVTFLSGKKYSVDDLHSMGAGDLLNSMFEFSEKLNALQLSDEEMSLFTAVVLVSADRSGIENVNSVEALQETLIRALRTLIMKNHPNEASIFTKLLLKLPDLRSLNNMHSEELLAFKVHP
Nature of the test: co-IP.

Test [6] deals with T2, Flag-tagged E75 (A isoform of Eip75B), overexpressed in Drosophila tissue (Drosophila melanogaster). Briefly: co-IP.

These are yes or no findings as the source states them, for the method shown. Binding seen in cells or lysates may run through a third protein. Some binding calls cover weakened binding; strength is not graded here. Where a sequence is shown, tags or fusion partners need not be part of it.

Consider “Flag-tagged Su(H) expressed in Drosophila S2 cells (from UniProt P28159 1-594)”, for which the binding entry in test [1] is reported as “binds”.
As for “HA-tagged Scalloped (Sd) expressed in Drosophila tissue (from UniProt P30052 1-440)”, the binding entry in test [2] and in test [3] was “binds” in each case.
For “HA-tagged Sd expressed in Drosophila S2 cells (from UniProt P30052 1-440)”, the binding result in test [4] is on record as “binds”.
In the case of “RBPJ, endogenous in human glioblastoma cells (from UniProt Q06330 1-500)”, the binding entry in test [5] is recorded as “binds”.
On to “Suppressor of Hairless [Su(H)], endogenous in Drosophila eye-antennal discs (from UniProt P28159 1-594)”, for which the binding entry in test [2] is recorded as “binds”.
For the molecule “TAZ (Transcriptional coactivator with PDZ-binding motif), endogenous in human glioblastoma cells (from UniProt Q9GZV5 1-400)”, in test [5], the binding entry was “binds”.

B1: Myc-tagged Yorkie (Yki) expressed in Drosophila wing discs (protein, UniProt Q45VV3 1-395)
chain: MLTTMSASSNTNSLIEKEIDDEDMLSPIKSNNLVVRVNQDTDDNLQALFDSVLNPGDAKRPLQLPLRMRKLPNSFFTPPAPSHSRANSADSTYDAGSQSSINIGNKASIVQQPDGQSPIAAIPQLQIQPSPQHSRLAIHHSRARSSPASLQQNYNVRARSDAAAANNPNANPSSQQQPAGPTFPENSAQEFPSGAPASSAIDLDAMNTCMSQDIPMSMQTVHKKQRSYDVISPIQLNRQLGALPPGWEQAKTNDGQIYYLNHTTKSTQWEDPRIQYRQQQQILMAERIKQNDVLQTTKQTTTSTIANNLGPLPDGWEQAVTESGDLYFINHIDRTTSWNDPRMQSGLSVLDCPDNLVSSLQIEDNLCSNLFNDAQAIVNPPSSHKPDDLEWYKIN
Consider B1, for which the binding entry in test [3] was “binds”.

B2: Yki ectopically expressed in Drosophila discs (yki transgene) (protein, UniProt Q45VV3 1-395)
chain: B1 chain
With B2, in test [6], the binding entry was “binds”.
